Measured values taken from PubChem BioAssay (NCATS).
Where “and” joins values, the source holds several entries; their conditions need not be identical. Identical values can stand only once. The shares of active, inactive and inconclusive entries below differ from those in the screen. Where the call is inconclusive, the potency comes from a doubtful curve fit. “Side channel” marks fits to a control or component signal instead of the main read-out. Calls of active or inactive are those of the source. Calls come from the whole dose curve; as a rule, active = well fitted inhibition curve with a large enough effect in the signal ratio, with a control signal flat (not every such curve was filed as active); inconclusive = small, poorly fitted or top-dose-only effect, or effect the other way, or a change in a side signal; inactive = flat fitted curve, though single readings scatter; the % refers to the signal ratio.

By UniProt entry, the sequences of proteins in these tests, tags left out. Where a name states a change or a piece, a line headed by the entry shows the natural chain unless it says otherwise.
UniProt P10828: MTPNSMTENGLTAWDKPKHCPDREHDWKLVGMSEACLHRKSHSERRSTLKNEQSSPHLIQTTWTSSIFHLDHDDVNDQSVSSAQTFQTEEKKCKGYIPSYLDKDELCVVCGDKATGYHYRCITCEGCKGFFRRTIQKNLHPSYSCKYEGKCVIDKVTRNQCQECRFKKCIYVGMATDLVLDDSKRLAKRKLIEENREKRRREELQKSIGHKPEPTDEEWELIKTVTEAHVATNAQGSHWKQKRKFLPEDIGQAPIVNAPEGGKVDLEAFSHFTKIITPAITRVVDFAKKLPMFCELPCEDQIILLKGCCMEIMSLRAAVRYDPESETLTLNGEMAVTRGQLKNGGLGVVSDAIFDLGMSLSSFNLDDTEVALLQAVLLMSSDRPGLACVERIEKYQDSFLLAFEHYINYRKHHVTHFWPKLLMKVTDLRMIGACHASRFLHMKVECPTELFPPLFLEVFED

target: Thyroid hormone receptor beta (Homo sapiens) (UniProt P10828); assay: qHTS assay for small molecule antagonists of thyroid hormone receptor beta signaling (AID 588547); details: TR-UAS-bla HEK293, beta-lactamase ratio, antagonist mode, 18 h;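 for activity change % (negative = inhibition): cells stimulated with 0.4 nM T3 agonist during compound exposure; series mostly up to about 77 µM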
Excerpt: NIH Chemical Genomics Center [NCGC] U.S. Environmental Protection Agency [EPA] National Institutes of Environmental Health Sciences [NIEHS] National Toxicology Program [NTP] NCGC Assay Overview Thyroid hormone receptor (TR) belongs to nuclear hormone receptor superfamily. There are two subtypes for TR: TR-alpha and TR-beta. TR-beta plays a major role in regulating plasma cholesterol levels and it mediates the biological activities of thyroid hormone. Screening environmental chemicals on TR-beta signaling will provide important information for the mechanism of compound action.
NCGC Assay Protocol Summary Using a beta-lactamase reporter-gene under control of the TR response element, a cell-based assay [GeneBLAzer TR-UAS-bla-GripTite assay developed by Invitrogen] was used to measure TR-beta signaling in antagonist mode. TR-UAS-bla-GripTite HEK 293 cells were used with assay medium containing 2% charcoal/dextran FBS, 0.1 mM NEAA and 1 mM sodium pyruvate. The assay was performed in clear bottom black Greiner 1536-well plates. Library compounds were measured for their ability to inhibit the reporter gene activity. Compounds were screened in a titration series in 1536-well format. The fluorescence intensity (405 nm excitation, 460/530 nm emission) was measured using an EnVision plate reader. […] Concentration-response titration points for each compound were fitted to the Hill equation yielding concentrations of half-maximal inhibition (IC50) and maximal response (efficacy) values. qHTS protocol for TR-beta beta-lactamase assay in antagonist mode [Step] [Parameter] [Value] [Description] 1. Reagent; 5 uL; 2500 cells/well 2. Incubation; 37 C for 4 hrs 3. Compounds; 23 nL; 0.59 nM to 92 uM 4. Controls (DMSO); 23 nL 5. Agonist (Stimulator); 1uL; T3 at 0.4nM (final) concentrations 6. Incubation; 37 C for 18 hrs 7. Detection reagent; 1 uL of CCF4-dye 8. Incubation; RT for 2 hrs 9. Detection; Fluorescence; Envision plate reader
% is set by controls: 0 for no effect and ±100 for the full control effect.

Row | Structure (SMILES) | activity change % (negative = inhibition) | Potency
1 | O=C(Oc1ccccc1)c1cccc(C(=O)Oc2ccccc2)c1 | inactive: 0.996% | –
2 | Cc1ccccc1C(OCCN(C)C)c1ccccc1 (configuration not stated) | – | inconclusive: 1.58 µM [side channel, falling, partial curve, poor fit]
3 | CC1=C(/C=C/C(C)=C/C=C/C(C)=C/C(=O)Nc2ccc(O)cc2)C(C)(C)CCC1 | – | inconclusive: 50.1 µM [inhibitor, partial curve, poor fit]
4 | Nc1nc(N)c2nc(-c3ccccc3)c(N)nc2n1 | – | inconclusive: 11.2 µM [fluorescent, side channel, partial curve, poor fit] and inconclusive: 44.7 µM [fluorescent, side channel]
5 | CCCCCCCCCCCCOS(=O)(=O)O | inconclusive: 10.3% | –
6 | NCCNc1cccc2ccccc12 | inactive: -5.49% and inconclusive: -40.4% | –
7 | O=S(=O)(c1ccccc1)N(CC(F)(F)F)c1ccc(C(O)(C(F)(F)F)C(F)(F)F)cc1 | – | inconclusive: 0.0447 µM [cytotoxic, side channel, full curve, poor fit]
8 | Cc1cc(C(C)(C)C)c(O)c(C(C)(C)C)c1 | inconclusive: -11.3% | –
9 | CCCCCCCCCCCCCC(=O)OC(C)C | – | inconclusive: 0.282 µM [cytotoxic, side channel, full curve, poor fit]
10 | COc1ccccc1O | inactive: 8.27% and inactive: 8.42% and inactive: 1.01% | –
11 | CC(=O)OC/C=C(C)/C=C/C=C(C)/C=C/C1=C(C)CCCC1(C)C | inconclusive: 19.5% | –
12 | O=c1[nH]c(=O)n([C@H]2C[C@H](O)[C@@H](CO)O2)cc1Br | inactive: 7.23% | –
